Measurements from paper PMC5231319.

Biological target: Myc-tagged Calreticulin (chick) (chick)
Assay: co-IP; HEK-293T cells co-transfected with CALR-Myc and BMP4; medium immunoprecipitated with anti-Myc (control: mouse IgG), Sepharose beads, eluate blotted with anti-BMP4; Co-IP wash buffer 0.025 M Tris pH 7.4, 0.15 M NaCl, 0.001 M EDTA, 1% NP-40, 5% glycerol, 4 °C

binding: binds
B1: BMP4 (ligand, UniProt P12644 293-408)
chain: SPKHHSQRARKKNKNCRRHSLYVDFSDVGWNDWIVAPPGYQAFYCHGDCPFPLADHLNSTNHAIVQTLVNSVNSSIPKACCVPTELSAISMLYLDEYDKVVLKNYQEMVVEGCGCR

Results are given in words; binding and its absence hold for the method and conditions named. Binding seen in cells or lysates may run through a third protein. Binding calls can cover weak binding; strength is not graded here.
